Results from article doi:10.1101/2023.09.10.557050 (bioRxiv, 2023).
These are yes or no findings as the source states them, for the method shown. Some entries that bind do so weakly or less than the wild type.

Target: T1, EcNhaA WT-like triple mutant (A109T, Q277G, L296M) (E. coli), P13738
T1 chain: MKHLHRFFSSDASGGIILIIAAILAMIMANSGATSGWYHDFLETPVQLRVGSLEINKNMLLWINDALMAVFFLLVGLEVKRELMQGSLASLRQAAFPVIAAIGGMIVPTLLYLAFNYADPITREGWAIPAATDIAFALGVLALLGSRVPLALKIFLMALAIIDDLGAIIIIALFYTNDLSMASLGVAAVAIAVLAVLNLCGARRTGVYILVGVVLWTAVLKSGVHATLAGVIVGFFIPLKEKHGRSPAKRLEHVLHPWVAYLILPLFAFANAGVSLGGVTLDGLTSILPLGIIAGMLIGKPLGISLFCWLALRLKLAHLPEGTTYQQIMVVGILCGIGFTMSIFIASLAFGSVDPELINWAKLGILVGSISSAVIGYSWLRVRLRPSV
Test: cryo-EM structure
Details: remark: other sources report otherwise

binding: binds
B1: EcNhaA WT-like triple mutant (A109T, Q277G, L296M), P13738 1-388 (natural protein)
chain: MKHLHRFFSSDASGGIILIIAAILAMIMANSGATSGWYHDFLETPVQLRVGSLEINKNMLLWINDALMAVFFLLVGLEVKRELMQGSLASLRQAAFPVIAAIGGMIVPTLLYLAFNYADPITREGWAIPAATDIAFALGVLALLGSRVPLALKIFLMALAIIDDLGAIIIIALFYTNDLSMASLGVAAVAIAVLAVLNLCGARRTGVYILVGVVLWTAVLKSGVHATLAGVIVGFFIPLKEKHGRSPAKRLEHVLHPWVAYLILPLFAFANAGVSLGGVTLDGLTSILPLGIIAGMLIGKPLGISLFCWLALRLKLAHLPEGTTYQQIMVVGILCGIGFTMSIFIASLAFGSVDPELINWAKLGILVGSISSAVIGYSWLRVRLRPSV
